Biological target: T1, TDP-43 (Mus musculus, UniProt Q921F2)
T1 construct: N9 cells expressing endogenous TDP-43 were treated with various concentrations of B10; endogenous in cells; host or cells: N9 mouse microglial cells
Assay: InCell Western (ICW) drug screen for TDP-43 levels in N9 cells
Format: cell-based
Conditions: N9 cells treated 24 hours, DMSO vehicle control = 100
Experimental: To optimize the ICW technique for screening TDP-43 targeting drugs, N9 cells were seeded in a 96-well plate and processed for ICW by using various dilution of TDP-43 antibody. TDP-43 antibody, used at a dilution of 1:1000, provided sufficient signal for detection (FIG. 1A).
For drug screening, N9 cells were treated with a panel of candidate drug molecules for 24 hours and the effect on TDP-43 levels was analyzed using the InCell Western assay. […] Based on its effect on TDP-43 levels, B10 was chosen was further analysis.
To optimize TDP-43 targeting ICW, N9 cells were seeded in a 96-well plate and probed with different dilutions of TDP-43 antibody as previously described (Jinwal and Dickey, 2011). For the identification of candidate drug molecules, N9 cells were treated with an array of drugs for 24 hours and processed for ICW (Jinwal and Dickey, 2011). In brief, cells were fixed, washed with PBS and incubated in blocking buffer. Cells were then incubated in primary antibody to TDP-43 (1:1000) and GAPDH (1:3000) for overnight. After washing with 0.2% Tween-20 PBS, cells were incubated with fluorescently tagged secondary antibodies for 1 hour and 30 minutes. Fluorescence intensity was then recorded and quantified using the Odyssey Infrared Imaging System (LI-COR). ICW experiments were performed in duplicate.

By UniProt entry, the sequences of proteins in these tests, tags left out.
UniProt Q921F2, whole entry: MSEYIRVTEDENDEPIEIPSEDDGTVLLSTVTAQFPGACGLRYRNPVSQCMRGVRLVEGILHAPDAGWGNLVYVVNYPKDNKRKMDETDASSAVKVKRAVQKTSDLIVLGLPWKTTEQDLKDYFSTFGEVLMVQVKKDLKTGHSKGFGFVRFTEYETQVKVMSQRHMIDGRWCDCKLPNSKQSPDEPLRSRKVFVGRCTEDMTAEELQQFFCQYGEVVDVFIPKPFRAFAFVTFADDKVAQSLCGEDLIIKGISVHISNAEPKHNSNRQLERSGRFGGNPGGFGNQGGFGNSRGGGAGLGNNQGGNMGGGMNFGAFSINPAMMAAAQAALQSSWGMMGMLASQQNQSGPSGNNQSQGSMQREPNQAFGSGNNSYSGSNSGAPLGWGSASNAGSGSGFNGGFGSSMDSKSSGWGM

`CCN(CC)CCOC(=O)C1(C2CCCCC2)CCCCC1` [B9, Dicyclomine] was tested, and the “% TDP43 level” value was 115%.

From patent US9844519B1, “Method of treating TDP-43 proteinopathies using hexachlorophene” (University of South Florida, priority 2014, dated 2017)
